PubChem BioAssay AID1259405, NCATS, 2018
This is an unselected part of about 50,000 reagents tested. About 4,000 of them (8%) count as active. 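Mouse siRNA library applied to hamster cells; one well for each siRNA.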 Entries without a mark were called inactive. Reagents against one gene are numbered here.

- Test: 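Silenced genes that increase secreted GFP made by CHO cells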 (primary screen)
- Cells: Chinese hamster CHO-K1 ovary cells with stable secreted eGFP expression
- Knock-down reagent: single siRNA against mouse genes, 0.8 pmol siRNA per well (2 µl of 400 nM stock)
- Timing: 3 days
- Detection: 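Percent of the per-plate non-targeting control median for intracellular GFP per well by laser scanning cytometry and for cell viability by ATP luminescence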
- Reading the numbers: GFP, % of control: higher = more GFP per well, higher productivity; viability (ATP), % of control: higher = more viable cells (more ATP)
- Rule for the call: 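a knock-down is called active if GFP reaches 120% or more of non-targeting control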

gene symbol | reagent no. | GFP, % of control | viability (ATP), % of control
Ampd2 (GeneID 109674) | 1 | 99.8 | 90.1
Ampd2 (GeneID 109674) | 2 | 63.6 | 74.2
Ampd2 (GeneID 109674) | 3 | 126 (active) | 85.3
H2-Q1 (GeneID 15006) | 1 | 33.3 | 31.5
H2-Q1 (GeneID 15006) | 2 | 59.8 | 70.3
H2-Q1 (GeneID 15006) | 3 | 84 | 79
Batf2 (GeneID 74481) | 1 | 87.7 | 75.1
Batf2 (GeneID 74481) | 2 | 103 | 34.5
Batf2 (GeneID 74481) | 3 | 110 | 114
Sf1 (GeneID 22668) | 1 | 88.1 | 117
Sf1 (GeneID 22668) | 2 | 71.7 | 62
Sf1 (GeneID 22668) | 3 | 78.2 | 77.6
Slc25a15 (GeneID 18408) | 1 | 111 | 104
Slc25a15 (GeneID 18408) | 2 | 66.7 | 89.6
Slc25a15 (GeneID 18408) | 3 | 69.6 | 105
Or10g1b (GeneID 258268) | 1 | 67.6 | 60.3
Or10g1b (GeneID 258268) | 2 | 82.6 | 98.8
Or10g1b (GeneID 258268) | 3 | 82.4 | 48.4
Zdhhc14 (GeneID 224454) | 1 | 33.8 | 24.9
Zdhhc14 (GeneID 224454) | 2 | 55.6 | 39.1
Zdhhc14 (GeneID 224454) | 3 | 49 | 67.5
H3f3b (GeneID 15081) | 1 | 106 | 110
H3f3b (GeneID 15081) | 2 | 116 | 108
H3f3b (GeneID 15081) | 3 | 33.4 | 52.4
Upk1a (GeneID 109637) | 1 | 10.9 | 9.76
Upk1a (GeneID 109637) | 2 | 139 (active) | 70.7
Upk1a (GeneID 109637) | 3 | 108 | 95.3
Spidr (GeneID 224008) | 1 | 40.6 | 39.8
Spidr (GeneID 224008) | 2 | 31.7 | 59.5
Spidr (GeneID 224008) | 3 | 87.9 | 79.7
Aif1 (GeneID 11629) | 1 | 91.8 | 88.3
Aif1 (GeneID 11629) | 2 | 91.5 | 65.4
Or5ac15 (GeneID 433031) | 1 | 24.5 | 22.9
Or5ac15 (GeneID 433031) | 2 | 71.1 | 54
Or5ac15 (GeneID 433031) | 3 | 56.3 | 85.7

Entries listed so far whose target name starts with B or b (3):
gene symbol | reagent no. | GFP, % of control | viability (ATP), % of control
Batf2 (GeneID 74481) | 1 | 87.7 | 75.1
Batf2 (GeneID 74481) | 2 | 103 | 34.5
Batf2 (GeneID 74481) | 3 | 110 | 114
